Earlier results, collected in patent US20170190705A1, “Compositions and Methods for Inhibiting BMP” (THE BRIGHAM AND WOMAN'S HOSPITAL, INC., priority 2014, published 2017).
For at least one compound, name, drawing or mass did not settle the structure.

System: BMP type I receptors, ALK2, ALK3, and ALK6
Details: Yu et al. Nat. Chem. Biol. 4:33-41, 2008; cited from earlier work

SMILES: c1cc(-c2cnn3cc(-c4ccc(OCCN5CCCCC5)cc4)cnc23)ccn1 [Dorsomorphin]
- inhibition of the activity of BMP type I receptors: inhibits ALK2 and ALK3 to a greater extent than it does ALK6
